In patent US6495144 one finds binding data, which are given here for one molecule.

Amino acid sequences for entries named in this document (tags omitted).
UniProt Q06330: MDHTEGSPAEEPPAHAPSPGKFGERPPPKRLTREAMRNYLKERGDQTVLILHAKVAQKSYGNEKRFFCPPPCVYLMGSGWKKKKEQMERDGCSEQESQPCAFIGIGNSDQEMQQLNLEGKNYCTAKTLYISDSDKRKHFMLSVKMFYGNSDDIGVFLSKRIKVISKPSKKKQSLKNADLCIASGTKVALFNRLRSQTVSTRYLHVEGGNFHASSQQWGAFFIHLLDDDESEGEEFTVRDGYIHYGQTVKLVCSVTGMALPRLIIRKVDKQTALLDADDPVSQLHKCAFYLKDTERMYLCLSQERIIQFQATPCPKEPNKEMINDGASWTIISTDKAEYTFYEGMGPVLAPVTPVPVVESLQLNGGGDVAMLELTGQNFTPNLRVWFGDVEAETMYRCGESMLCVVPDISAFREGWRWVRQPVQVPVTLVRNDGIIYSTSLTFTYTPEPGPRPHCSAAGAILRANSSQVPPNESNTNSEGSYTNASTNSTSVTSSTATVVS

No constants are given. Whether binding was seen depends on the method and setting. Some binding calls cover weakened binding; strength is not graded here.

The target in experiment [1] is CBF1/RBPJk (UniProt Q06330). Description: GST affinity assay, GST-EBNA2 (252-425) and 35S-labeled in vitro translated CBF1.
In experiment [2] the target is CBF1/RBPJk (UniProt Q06330). Kind of experiment: EMSA competition and GST affinity assay.

B1: CR6 peptide comprised of EBNA2 amino acids 318-327 (peptide)
peptide: PSGPPWWPPI
As for B1, the binding result with CBF1/RBPJk [1] and in the experiment with CBF1/RBPJk [2] was “binds” throughout.
